Results as given in PubChem BioAssay AID1688 (National Center for Advancing Translational Sciences (NCATS), 2009).
Hit rate of the full screen: of about 220,000 compounds, about 2,400 (1.1%) were called active. The inconclusive results got no clear call from the source; some entries with a clear call stand among them for comparison. Calls follow the shape of the dose curve; as a rule, active = well fitted inhibition curve with a large enough effect; inconclusive = small, poorly fitted or top-dose-only effect, or effect the other way; inactive = no such curve, though single readings can be large or run the other way. Potencies beside an inconclusive call are fits to weak or partial responses and may not hold up.

Assay: qHTS Multiplex Assay to Identify Dual Action Probes in a Cell Model of Huntington: Aggregate Formation (GFP); also: nearly all actives have a fitted effect of over 60% in size
Details: PC12 HttQ103-GFP aggregates, Acumen cytometry, 40 h; activity change, negative = inhibition: at 46.1 µM (top of the series) unless noted
In short: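 Ecdysone-promoter PC12 model expressing HTT exon 1 Q103 fused to GFP, induced by tebufenozide at 100 nM final. Compounds titrated; aggregates sized 1–25 µm scored on a 488 nm laser cytometer.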
% is scaled to controls: 0 for no effect and ±100 for the full control effect; potency is read from the fitted curve at half-maximal effect.

Row | Compound | Potency | activity change, negative = inhibition
1 | Cc1ccc(C(=O)NNC(=O)CCCN2C(=O)/C(=C/c3ccccc3Cl)SC2=S)cc1 | active: 35.5 µM | 
2 | O=S(=O)(c1ccccc1)N1CCN(c2cc(-c3ccccc3)nc3ncnn23)CC1 | active: 11.2 µM | 
3 | COC(=O)c1sc(N)c(C(=O)OC)c1COC(=O)C1CC(=O)N(Cc2ccco2)C1 (stereo not drawn) | inconclusive: 35.5 µM [activator, single point] | 
4 | CC(C)CC(=O)NN(C)c1nc(-c2ccccc2)nnc1C(F)(F)F | inconclusive: 35.5 µM [inhibitor, single point] | 
5 | N#C/C(=C(/O)c1ccc(F)cc1)c1nc2ccccc2s1 | inconclusive: 25.1 µM [inhibitor, single point] | 
6 | COC(=O)c1sc(NC(=S)NC(=O)c2cccc(C)c2)nc1C | inactive | 
7 | c1ccc(-c2noc(CSc3nnnn3-c3ccccc3)n2)cc1 | inactive | 
8 | O=C(CSc1ncc(-c2ccccc2)nn1)NCc1ccco1 | inconclusive: 11.2 µM [inhibitor, partial curve] | 
9 | CC(CNC(=O)COc1ccccc1)OC(=O)Nc1ccc(Cl)c(Cl)c1 (stereo not drawn) | inconclusive: 2.82 µM [inhibitor, partial curve] | 
10 | CCn1c(Cc2cccs2)nnc1SCC(=O)NC(C)(C)C | inconclusive: 12.6 µM [activator, partial curve] | 
11 | CN(C(=O)CSc1nc(-c2ccccc2)cn1N)C(c1ccccc1)c1ccccc1 | inconclusive: 0.631 µM [inhibitor, full curve, poor fit] | 
12 | Cc1cc(C(=O)NCc2nc(-c3ccccc3)no2)ccc1[N+](=O)[O-] | inconclusive: 28.2 µM [inhibitor, single point] | 
13 | O=C(NC(=S)NNC(=O)c1cc2ccccc2cc1O)c1ccco1 | inconclusive: 7.94 µM [inhibitor, partial curve] | 
14 | O=C(c1ccc(CSc2nc3ccncc3[nH]2)cc1)N1CCN(c2cccc(Cl)c2)CC1 | inconclusive: 12.6 µM [inhibitor, single point] | 
15 | O=C(Nc1ccccc1)Nc1ccc(Oc2cccnc2)nc1 |  | inactive: 1.79% [at 9.22 µM]
16 | Cc1ccc(C(=O)N2CCN(c3ccc(NC(=O)COc4ccccc4C)cc3)CC2)cc1 | inconclusive: 3.98 µM [inhibitor, full curve] | 
17 | COC(=O)c1c(C)nc2c(c(SC)nn2-c2ccccc2)c1N | inconclusive: 3.16 µM [inhibitor, single point] | 
18 | COC(=O)c1sc(S(=O)(=O)NCCC(=O)O)c(C(=O)OC)c1C | inconclusive: 3.55 µM [activator, partial curve] | 

Two records drawn at random from those above, as already listed:
Row | Compound | Potency | activity change, negative = inhibition
5 | N#C/C(=C(/O)c1ccc(F)cc1)c1nc2ccccc2s1 | inconclusive: 25.1 µM [inhibitor, single point] | 
10 | CCn1c(Cc2cccs2)nnc1SCC(=O)NC(C)(C)C | inconclusive: 12.6 µM [activator, partial curve] | 
